Laboratory results as given in publication PMC8931115.
Results are given in words; binding and its absence hold for the method and conditions named. Binding seen in cells or lysates may run through a third protein. Some entries that bind do so weakly or less than the wild type.

Protein sequences, listed by entry. Tags and fused reporters are not part of them. Residues count along the entry.
UniProt O95721: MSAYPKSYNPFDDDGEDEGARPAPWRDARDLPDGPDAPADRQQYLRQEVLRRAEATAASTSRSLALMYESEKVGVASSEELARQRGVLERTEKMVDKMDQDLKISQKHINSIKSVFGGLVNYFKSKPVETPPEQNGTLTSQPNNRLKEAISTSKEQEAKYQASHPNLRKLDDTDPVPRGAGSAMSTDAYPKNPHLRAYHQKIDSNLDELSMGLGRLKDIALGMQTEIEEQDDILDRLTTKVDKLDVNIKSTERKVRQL
UniProt Q13586, residues 23-685: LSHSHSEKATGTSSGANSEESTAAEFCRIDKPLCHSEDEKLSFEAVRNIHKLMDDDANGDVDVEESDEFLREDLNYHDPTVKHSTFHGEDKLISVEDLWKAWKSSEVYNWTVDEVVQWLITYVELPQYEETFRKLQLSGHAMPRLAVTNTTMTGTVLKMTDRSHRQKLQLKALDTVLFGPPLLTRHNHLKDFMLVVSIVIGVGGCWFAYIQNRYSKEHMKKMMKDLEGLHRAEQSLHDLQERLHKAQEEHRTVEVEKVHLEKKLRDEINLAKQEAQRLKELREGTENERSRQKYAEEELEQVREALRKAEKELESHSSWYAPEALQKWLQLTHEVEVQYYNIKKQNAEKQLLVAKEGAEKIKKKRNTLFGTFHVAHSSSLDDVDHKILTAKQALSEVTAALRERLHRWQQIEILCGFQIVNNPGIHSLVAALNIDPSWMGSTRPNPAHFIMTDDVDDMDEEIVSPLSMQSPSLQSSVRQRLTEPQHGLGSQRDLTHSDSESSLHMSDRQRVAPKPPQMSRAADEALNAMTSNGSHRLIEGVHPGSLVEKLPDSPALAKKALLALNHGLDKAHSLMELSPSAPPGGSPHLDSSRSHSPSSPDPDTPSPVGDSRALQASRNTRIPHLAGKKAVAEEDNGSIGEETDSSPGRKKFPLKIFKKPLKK
UniProt Q9UBF8: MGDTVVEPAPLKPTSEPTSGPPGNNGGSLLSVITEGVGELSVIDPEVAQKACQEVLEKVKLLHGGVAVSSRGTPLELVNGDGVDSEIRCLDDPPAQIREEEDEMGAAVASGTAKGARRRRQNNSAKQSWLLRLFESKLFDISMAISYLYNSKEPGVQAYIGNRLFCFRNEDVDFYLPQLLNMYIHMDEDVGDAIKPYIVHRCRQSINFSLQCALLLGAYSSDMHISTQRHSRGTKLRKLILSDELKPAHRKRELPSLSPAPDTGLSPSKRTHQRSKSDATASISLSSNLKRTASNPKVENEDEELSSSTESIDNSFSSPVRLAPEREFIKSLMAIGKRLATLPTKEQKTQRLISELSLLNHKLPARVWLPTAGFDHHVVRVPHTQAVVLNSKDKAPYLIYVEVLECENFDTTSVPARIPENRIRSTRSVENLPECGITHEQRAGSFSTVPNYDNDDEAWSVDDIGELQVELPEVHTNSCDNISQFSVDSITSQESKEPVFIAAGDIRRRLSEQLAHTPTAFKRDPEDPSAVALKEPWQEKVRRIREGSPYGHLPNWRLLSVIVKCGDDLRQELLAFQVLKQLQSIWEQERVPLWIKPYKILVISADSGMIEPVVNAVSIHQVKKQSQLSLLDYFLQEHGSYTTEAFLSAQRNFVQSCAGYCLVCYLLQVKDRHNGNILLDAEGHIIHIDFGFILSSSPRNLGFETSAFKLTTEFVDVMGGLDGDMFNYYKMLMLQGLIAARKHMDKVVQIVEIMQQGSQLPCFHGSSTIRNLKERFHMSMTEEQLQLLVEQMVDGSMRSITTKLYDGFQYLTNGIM
UniProt Q86WV6: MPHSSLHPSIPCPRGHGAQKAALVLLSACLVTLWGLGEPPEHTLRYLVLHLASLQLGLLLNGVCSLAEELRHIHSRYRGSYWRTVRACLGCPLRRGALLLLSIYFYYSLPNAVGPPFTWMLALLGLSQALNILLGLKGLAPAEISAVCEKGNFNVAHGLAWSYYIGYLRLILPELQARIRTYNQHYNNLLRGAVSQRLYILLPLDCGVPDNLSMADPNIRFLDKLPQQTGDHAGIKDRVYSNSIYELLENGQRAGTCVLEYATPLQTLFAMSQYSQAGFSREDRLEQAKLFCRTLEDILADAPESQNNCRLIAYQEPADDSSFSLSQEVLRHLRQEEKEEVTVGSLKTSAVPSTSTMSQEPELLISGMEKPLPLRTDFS

Assays:
[1] = target: T1, VAMP8 (human (endogenous in bronchial epithelial cells)) (UniProt Q9BV40); experiment: FRET or BRET; FRET efficiency (E%) between STING, Ykt6, snap29 and Vamp8 in mock and HRV infected cells 6 h p.i.
T1 sequence: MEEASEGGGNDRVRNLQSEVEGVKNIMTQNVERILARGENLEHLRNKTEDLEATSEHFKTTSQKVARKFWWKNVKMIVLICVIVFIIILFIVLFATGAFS

[2] = target: SNAP29 (human (endogenous in bronchial epithelial cells)) (UniProt O95721); experiment: as above
[3] = target: T2, Ykt6 (human (endogenous in bronchial epithelial cells)) (UniProt O15498); experiment: as above
T2 sequence: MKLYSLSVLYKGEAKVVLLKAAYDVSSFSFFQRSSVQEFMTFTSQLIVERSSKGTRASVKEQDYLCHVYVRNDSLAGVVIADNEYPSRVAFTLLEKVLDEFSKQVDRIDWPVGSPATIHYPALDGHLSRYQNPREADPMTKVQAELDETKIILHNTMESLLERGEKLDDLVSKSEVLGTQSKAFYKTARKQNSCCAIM

[4] = target: Stromal interaction molecule 1 (STIM1) (human (endogenous in BEAS-2B)) (UniProt Q13586); experiment: FRET or BRET; FRET in uninfected BEAS-2B cells; donor STING, acceptor STIM1
[5] = target: Phosphoinositol-4-kinase IIIβ (PI4KIIIβ) (human (endogenous in BEAS-2B)) (UniProt Q9UBF8); experiment: FRET or BRET; FRET in BEAS-2B cells infected with HRV for 1 h; STING with PI4KIIIβ

- binding [1]: binds
- binding [2]: binds
- binding [3]: binds
- binding [4]: binds
- binding [5]: binds
Substance: Stimulator of interferon genes (STING) (from UniProt Q86WV6 1-379)
